This is one part of the list.
These sequences were tested against T1, OsSMF1 (Oryza sativa, UniProt Q6ZLB0 1-436) (assay: protein-binding microarray (RPBM); PBS, 2% BSA, 51.3 ng/ul salmon testes DNA, 50 uM zinc acetate, 200 nM TF, 25 C, 1 h; high values mean tight binding). Conditions: protein: recombinant; tags: N-terminal polyhistidine and DsRed monomer fusion (pET32a); chain copies: 2; label: CyDye5-dUTP incorporated in the synthesized complementary strand; 3' TTTTT single-stranded linker to array surface; dsDNA, one strand shown.
T1 sequence: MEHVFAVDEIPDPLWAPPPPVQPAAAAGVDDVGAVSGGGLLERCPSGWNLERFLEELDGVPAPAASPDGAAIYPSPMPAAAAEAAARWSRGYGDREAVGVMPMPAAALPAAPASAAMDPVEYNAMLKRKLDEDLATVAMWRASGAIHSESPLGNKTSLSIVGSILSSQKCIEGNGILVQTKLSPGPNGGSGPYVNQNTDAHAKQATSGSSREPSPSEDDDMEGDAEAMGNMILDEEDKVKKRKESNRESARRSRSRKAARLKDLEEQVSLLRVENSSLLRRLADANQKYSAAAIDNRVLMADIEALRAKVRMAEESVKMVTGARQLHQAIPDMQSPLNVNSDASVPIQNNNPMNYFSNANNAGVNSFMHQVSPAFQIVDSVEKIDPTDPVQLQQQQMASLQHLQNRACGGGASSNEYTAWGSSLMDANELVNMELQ
Procedure, shortened: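 In PBS with 2% BSA, salmon testes DNA and 50 µM zinc acetate, 200 nM protein was incubated on a custom Agilent array at 25 °C for 1 h and then washed off. The array had been made double-stranded by primer extension with Cy5-dUTP and blocked with 2% BSA. The proteins were transcription factors fused N-terminally to polyhistidine and DsRed, expressed in E. coli BL21-CodonPlus and purified on Ni–NTA. The binding signal is per-feature fluorescence intensity (arbitrary units) from an Axon 4000B scanner.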

Sequence	binding signal
TCCATTTATTACCGTCATCTTATATAATCTTCAATTAGACCGGAGTCACCTAGTGCAG	3790 fluorescence intensity (a.u.)
GCTGTTCACTATGCTAGATCCTCACACCTTTGATGACATACGGAGTCACCTAGTGCAG	31600 fluorescence intensity (a.u.)
TCAGGTGGGTCGAGCCATGGTGTATGTTGACGTGCCAAATCGGAGTCACCTAGTGCAG	18100 fluorescence intensity (a.u.)
ATCTTTTCTAGTACCAGGATCTTGTGTTGGTGATAGAGAGCGGAGTCACCTAGTGCAG	42500 fluorescence intensity (a.u.)
GTGGTGTGTGTTTACATGTAAGATTAGACAGTTGCCAAGCCGGAGTCACCTAGTGCAG	3170 fluorescence intensity (a.u.)
AAATATTAATGCTTGCAGTGTCATAATTGCAAATCCCCTTCGGAGTCACCTAGTGCAG	4600 fluorescence intensity (a.u.)
GAGACCCGCGCTCGACCTCCTCCCAGGTTCTACCCTTCTACGGAGTCACCTAGTGCAG	18600 fluorescence intensity (a.u.)
AGATCAAAATCAGGTATTCAGGTGAGGCTTCCAGATATCCCGGAGTCACCTAGTGCAG	3540 fluorescence intensity (a.u.)
AAGACATGTATCCGCCCGTATATCCCATATTATAAAATATCGGAGTCACCTAGTGCAG	3250 fluorescence intensity (a.u.)
ATATATAGAAATTTCTTAGATACTTTTCAAAATCCATCTTCGGAGTCACCTAGTGCAG	21700 fluorescence intensity (a.u.)
AAACGACATCTGATGGAGATGTGTTCCATATCAAAGTTGTCGGAGTCACCTAGTGCAG	25000 fluorescence intensity (a.u.)
TGCCGGAGCGATTCTATGGGCGCCCATTGTAAGTTGTAACCGGAGTCACCTAGTGCAG	3930 fluorescence intensity (a.u.)
GGCCCACCCTACCGACATTCAATGGCGCCACGTCAGACAACGGAGTCACCTAGTGCAG	27500 fluorescence intensity (a.u.)
CTTGAATCCGGTGGTGTTGTGCTCAGCTCGGGCATGAGGGCGGAGTCACCTAGTGCAG	3480 fluorescence intensity (a.u.)
CCATGTTCCCAACCCCTCTCCCTCATTTTCCACGCGTATGCGGAGTCACCTAGTGCAG	3650 fluorescence intensity (a.u.)
GTAGCCCTCGTCGTCATTCTTATCCTCCTACTTCCGTTACCGGAGTCACCTAGTGCAG	3670 fluorescence intensity (a.u.)
TGTTGTCCACCTCCTTCGACATGAAAATTTGATGACATCACGGAGTCACCTAGTGCAG	4040 fluorescence intensity (a.u.)
CACTGGTCAACAGGTTGATGACTGTTTGACCGGATTTTGTCGGAGTCACCTAGTGCAG	3540 fluorescence intensity (a.u.)
TCCTTCCTCTTCCCTTTGTCGCCTACGCGAACCTGGTGCGCGGAGTCACCTAGTGCAG	3430 fluorescence intensity (a.u.)
CACAGTGCCCCTTGCTAAACGACGGGATCACGGGACTTGGCGGAGTCACCTAGTGCAG	33300 fluorescence intensity (a.u.)
AAGGATGTGCCGGTTGGGAACTCGGTGCTTGTGATGTATGCGGAGTCACCTAGTGCAG	3170 fluorescence intensity (a.u.)

Sequence	binding signal
CGAGGCTCTAGCTAGCTAGGACTCCACAGGAGGAGGAGGACGGAGTCACCTAGTGCAG	34600 fluorescence intensity (a.u.)
AGTGGCTTGCAAGAGGAGATGGAGAGGAAGCTGTATGAGCCGGAGTCACCTAGTGCAG	24100 fluorescence intensity (a.u.)
CGGCCGGAGCAGCGGCGCGCTGAACGGCGGCAATCCGCCGCGGAGTCACCTAGTGCAG	3170 fluorescence intensity (a.u.)
AGACTTTATGATGTTTGTAAGACGTGGATCTGTATGTCAACGGAGTCACCTAGTGCAG	4910 fluorescence intensity (a.u.)
CGATACCATTAACAATGTCAGCAGGTCTATTGTTTGGTAGCGGAGTCACCTAGTGCAG	4020 fluorescence intensity (a.u.)
CCAAGGTAAGATGAAGCAGCAGCATTTGCATTAAACTATCCGGAGTCACCTAGTGCAG	60100 fluorescence intensity (a.u.)
CGTGATCTCGTCGGTCTCGTCACGCACGCCCGCTCCGCTCCGGAGTCACCTAGTGCAG	3290 fluorescence intensity (a.u.)
GCCTGCCCAGATTCGTTGTACTATGAAATGTCACATCCTACGGAGTCACCTAGTGCAG	3160 fluorescence intensity (a.u.)
AAGAGGAATTAATGCAGGATTGCCTGTCCTGTCATCCTAGCGGAGTCACCTAGTGCAG	4780 fluorescence intensity (a.u.)
GACTTCGCGGGACGAATATTCATCGTCACGGTTGGTGTTCCGGAGTCACCTAGTGCAG	3170 fluorescence intensity (a.u.)
ATCGAGCTATCATGTAAGTGTCACGTCAATGTGACGTGGGCGGAGTCACCTAGTGCAG	20700 fluorescence intensity (a.u.)
TCGGAGACCACCTCCACCTCCACCTCCTCCACCACCTTCGCGGAGTCACCTAGTGCAG	3910 fluorescence intensity (a.u.)
TGGGAAACAGGACTCTGTTTTCTCTTGCTCTTGTACCAAACGGAGTCACCTAGTGCAG	3190 fluorescence intensity (a.u.)
AAGGAGTTGTACCTCCCAATCCTATCTGCCAAATCATCCCCGGAGTCACCTAGTGCAG	3740 fluorescence intensity (a.u.)
GTGCTAACTGCCTAGCACACGTGTTTATAGAGGTTGTCTGCGGAGTCACCTAGTGCAG	5800 fluorescence intensity (a.u.)
TTGTTTCCGCGCAAGTTGCAGTGTCACTCACTGATCGATCCGGAGTCACCTAGTGCAG	3340 fluorescence intensity (a.u.)
GTGATACGTGGGAGCGGCACCACGCCCATCCGCATCACGCCGGAGTCACCTAGTGCAG	3460 fluorescence intensity (a.u.)
GCTGGTAAAGCGGTGCGCCGGTGCCGCCACGTCCTCGCACCGGAGTCACCTAGTGCAG	15100 fluorescence intensity (a.u.)
AGCAGGAGAAGGGACCGAGAGAAGAGTCGCAGAGAGAGAGCGGAGTCACCTAGTGCAG	3660 fluorescence intensity (a.u.)
CCGCATGGACGCGGTCCACGCACCTGGCGGTGCACCTCCTCGGAGTCACCTAGTGCAG	3730 fluorescence intensity (a.u.)
AACAGTGAGCATTGTGCGTGCGAAAACCTGACGTCTTCTGCGGAGTCACCTAGTGCAG	3180 fluorescence intensity (a.u.)

Sequence	binding signal
TTGACCACTCGTCTTATTCAAATAATTTGTGCAAATATAACGGAGTCACCTAGTGCAG	17700 fluorescence intensity (a.u.)
AAACACACGTCCCCGACACCCACGCTGCCGCGACCTTCTTCGGAGTCACCTAGTGCAG	3610 fluorescence intensity (a.u.)
ACATAACTTAGTTGCTTAGTTAGAGTTCACCCTCACCAAGCGGAGTCACCTAGTGCAG	18200 fluorescence intensity (a.u.)
ACACCGTCGTGGTGTACGAGCGCCACGACGCCATGCGCGCCGGAGTCACCTAGTGCAG	4980 fluorescence intensity (a.u.)
GCCGCTGCACCGCCCCAGCCTCCTCCTCCCCACCGATGCCCGGAGTCACCTAGTGCAG	3150 fluorescence intensity (a.u.)
TGGGTATGTGATATGTGTGCGTGTGCTTGTTCCGTGTAATCGGAGTCACCTAGTGCAG	3290 fluorescence intensity (a.u.)
AACGACGGCGAATTCTACCTCCCCGGGTATCTGGACCTCGCGGAGTCACCTAGTGCAG	42900 fluorescence intensity (a.u.)
GATTGAATCATATCGTATCCTTTGAAATTCCTATGGAATGCGGAGTCACCTAGTGCAG	4120 fluorescence intensity (a.u.)
AATACCATTATTATTTATGAGGATAATTGTGTACATCAGTCGGAGTCACCTAGTGCAG	4360 fluorescence intensity (a.u.)
CACTCTCTCCGGAAGGCCCAAACCGCAGCTCAACGCTTCTCGGAGTCACCTAGTGCAG	25500 fluorescence intensity (a.u.)
GCGCCGTTGTTCTTCCTGCCACATCCATCCTGGTGAGCACCGGAGTCACCTAGTGCAG	3470 fluorescence intensity (a.u.)
GACATGAAATTAAAATCCTTAGACACATCACCGTTTGGCACGGAGTCACCTAGTGCAG	6170 fluorescence intensity (a.u.)
TCTCAGATGTCATGCTGGTGGCTTCACCGCCACGGCCGCGCGGAGTCACCTAGTGCAG	3170 fluorescence intensity (a.u.)
TGATTTTGTTTTAATACATGCAATCTTTCGATCCAATGGCCGGAGTCACCTAGTGCAG	24000 fluorescence intensity (a.u.)
GGAGGGAGTAGTAGCTAGCCGCCGTCACTTCCCAGTTCACCGGAGTCACCTAGTGCAG	3420 fluorescence intensity (a.u.)
ATATTTGCATATTTCTGGAATAAAGCCGCAGTGTCATGCACGGAGTCACCTAGTGCAG	3310 fluorescence intensity (a.u.)
AATAAGTGCAGTTGTGGGAATCCGTGTTGAACGTTTGACCCGGAGTCACCTAGTGCAG	14300 fluorescence intensity (a.u.)
GGTGAAGAAAGAAGTTGTGGCTGACATGTGAGTCCAATGTCGGAGTCACCTAGTGCAG	3220 fluorescence intensity (a.u.)
GAACCGGTCGCCGTCCACCGCTGCATCCATCCGTCCATGTCGGAGTCACCTAGTGCAG	3210 fluorescence intensity (a.u.)
GCCGCCCACCGCCTAGTCACCGCCTCCCACGATCATCCCTCGGAGTCACCTAGTGCAG	5010 fluorescence intensity (a.u.)
ATTGCCACGTAGGCGCCACGTGGCGCCACATCAGCAAAACCGGAGTCACCTAGTGCAG	40700 fluorescence intensity (a.u.)

Taken from above.
Entry of TTGACCACTCGTCTTATTCAAATAATTTGTGCAAATATAACGGAGTCACCTAGTGCAG under binding signal: 17700 fluorescence intensity (a.u.)
Entry of ACATAACTTAGTTGCTTAGTTAGAGTTCACCCTCACCAAGCGGAGTCACCTAGTGCAG under binding signal: 18200 fluorescence intensity (a.u.)
Entry of AACGACGGCGAATTCTACCTCCCCGGGTATCTGGACCTCGCGGAGTCACCTAGTGCAG under binding signal: 42900 fluorescence intensity (a.u.)
Entry of AATACCATTATTATTTATGAGGATAATTGTGTACATCAGTCGGAGTCACCTAGTGCAG under binding signal: 4360 fluorescence intensity (a.u.)

(cont.)

Sequence	binding signal
TAGGCTTAAAAGATTCATATCGCAATTTACACGCAATCTGCGGAGTCACCTAGTGCAG	3530 fluorescence intensity (a.u.)
ACCGCTGGATTATCGCGGTTATAGGGTACGTCGACGTGGTCGGAGTCACCTAGTGCAG	4360 fluorescence intensity (a.u.)
TCAACCGTGAAGCCTTCTCCACTCCACTGATCCACTCCATCGGAGTCACCTAGTGCAG	20700 fluorescence intensity (a.u.)
TGCTTTCCGTCCACGTATTCATCGGGCTGCTTCTCCTCTCCGGAGTCACCTAGTGCAG	11900 fluorescence intensity (a.u.)
GGCGCTCCCATCGTACTGCGTGGCTGCTGCCAGATCCAGGCGGAGTCACCTAGTGCAG	3790 fluorescence intensity (a.u.)
CTTCAGTCCTCGGCCCATTCTCCCTTCCTTTCAGCTGGCTCGGAGTCACCTAGTGCAG	45600 fluorescence intensity (a.u.)
AGCAAAATCTACGCGATGACGCCACGTGACATGACATCGCCGGAGTCACCTAGTGCAG	5840 fluorescence intensity (a.u.)
TATTTTGTACTTCTTGAAAATGTTCCTTTCTTTTCTGTCACGGAGTCACCTAGTGCAG	3520 fluorescence intensity (a.u.)
ACTAATGACGCTAAAAGGAAGGGATAAAACAACTTAACAACGGAGTCACCTAGTGCAG	22300 fluorescence intensity (a.u.)
GCTCTCTTTCCGCTTCTACCCTCGTCACGTCCACGAAATCCGGAGTCACCTAGTGCAG	5040 fluorescence intensity (a.u.)
AGAGAGAGGACGACATGTGGGTCCCACATGTCAGTGGGGCCGGAGTCACCTAGTGCAG	3280 fluorescence intensity (a.u.)
GATGCTATGCTATGCTATGTGAGACTACATGTTAGTATATCGGAGTCACCTAGTGCAG	3420 fluorescence intensity (a.u.)
ATATATGAGAATTTCCACGTCAAAATGGTGGAAACCTACGCGGAGTCACCTAGTGCAG	4620 fluorescence intensity (a.u.)
GCCTCGCGGACTCAGCCAGTCCACGCCATCGGCGGCGAGTCGGAGTCACCTAGTGCAG	5200 fluorescence intensity (a.u.)
CGCTGAGCTGTCGCCATCGACCCGGAGTCCCTCCCGCACCCGGAGTCACCTAGTGCAG	4570 fluorescence intensity (a.u.)
TAGCAGCCAATTAGTCCACTTAATCACCCATGGATCGCGACGGAGTCACCTAGTGCAG	3490 fluorescence intensity (a.u.)
ATTAATAGCAGTGACGTCTTGCACATACTGTATGAGTCATCGGAGTCACCTAGTGCAG	11000 fluorescence intensity (a.u.)
TTTGATGCTGATTATAGGAAAATGTAAATGTTTCTATATACGGAGTCACCTAGTGCAG	39500 fluorescence intensity (a.u.)
CACTAACGCTCACACACACTAGGCTCCAACACCAACCCAACGGAGTCACCTAGTGCAG	3450 fluorescence intensity (a.u.)
AGGCAGAACAGCCATGGCTGAGCTCGATCTCGAGCTCACCCGGAGTCACCTAGTGCAG	7160 fluorescence intensity (a.u.)
CCACCCATCCGGCCGTAACCCGCTGTCCACCATAATCCTGCGGAGTCACCTAGTGCAG	3830 fluorescence intensity (a.u.)
